The assay addresses His6-MBP-Fam20C (human) (UniProt Q8IXL6). Description: pull-down; MBP pull-down on amylose resin; His6-MBP-Fam20C as bait, His6-SUMOstar-Fam20A (WT and mutants) mixed in; SDS-PAGE and Coomassie staining; both purified.

By UniProt entry, the sequences of proteins in these tests, tags left out. Residues count along the entry.
UniProt Q8IXL6, residues 63-584: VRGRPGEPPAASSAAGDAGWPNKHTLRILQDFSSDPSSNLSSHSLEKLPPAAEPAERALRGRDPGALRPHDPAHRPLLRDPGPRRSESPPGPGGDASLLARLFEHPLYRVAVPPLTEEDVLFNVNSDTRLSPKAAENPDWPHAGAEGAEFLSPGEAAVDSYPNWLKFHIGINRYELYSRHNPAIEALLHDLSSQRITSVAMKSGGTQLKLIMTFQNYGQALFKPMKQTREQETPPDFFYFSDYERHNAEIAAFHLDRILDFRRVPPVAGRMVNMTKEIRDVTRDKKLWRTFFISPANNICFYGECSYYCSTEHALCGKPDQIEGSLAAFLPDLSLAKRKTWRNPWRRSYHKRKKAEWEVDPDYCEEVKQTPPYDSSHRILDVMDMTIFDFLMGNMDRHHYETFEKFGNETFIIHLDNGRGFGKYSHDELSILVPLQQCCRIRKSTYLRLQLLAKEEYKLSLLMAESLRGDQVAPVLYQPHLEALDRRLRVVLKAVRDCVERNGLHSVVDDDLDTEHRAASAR

These are yes or no findings as the source states them, for the method shown. Some results given as binding are weak or reduced against the parent protein; the word gives no strength. Tags and fused reporters may be left off the sequences shown.

This note sets out measurements from paper PMC5865150, “Structure and evolution of the Fam20 kinases” (Nature Communications, 2018).

B1: His6-SUMOstar-Fam20A (WT) (protein, UniProt Q96MK3 34-541)
chain: QLRPRERPRGCPCTGRASSLARDSAAAASDPGTIVHNFSRTEPRTEPAGGSHSGSSSKLQALFAHPLYNVPEEPPLLGAEDSLLASQEALRYYRRKVARWNRRHKMYREQMNLTSLDPPLQLRLEASWVQFHLGINRHGLYSRSSPVVSKLLQDMRHFPTISADYSQDEKALLGACDCTQIVKPSGVHLKLVLRFSDFGKAMFKPMRQQRDEETPVDFFYFIDFQRHNAEIAAFHLDRILDFRRVPPTVGRIVNVTKEILEVTKNEILQSVFFVSPASNVCFFAKCPYMCKTEYAVCGNPHLLEGSLSAFLPSLNLAPRLSVPNPWIRSYTLAGKEEWEVNPLYCDTVKQIYPYNNSQRLLNVIDMAIFDFLIGNMDRHHYEMFTKFGDDGFLIHLDNARGFGRHSHDEISILSPLSQCCMIKKKTLLHLQLLAQADYRLSDVMRESLLEDQLSPVLTEPHLLALDRRLQTILRTVEGCIVAHGQQSVIVDGPVEQLAPDSGQANLTS
Consider B1, for which the binding entry is “binds”.
